# Experimental data reported in PubChem BioAssay AID256 (DTP/NCI, 2004).
# The list does not hold the whole screen: it is rich in T/C values a quarter to a half above the control, in often repeated tests (any T/C) and in doses without a T/C. Further doses and runs are listed elsewhere. T/C is the treated group as % of the vehicle group. Some entries give survivors of the animals treated and no T/C: the source holds a T/C of zero for them, seemingly a mark for toxic or unscored doses. Survivors were counted at the toxicity check, usually on the fifth day, unless a day is given; later deaths do not show. Schedules are NCI's codes, taken here to give the interval after Q, in days (D) or hours (H), and the number of doses after X. Some entries were tested several times; the results are listed from low to high. Marks such as (2×) give the number of equal values in this list. Some survivor counts are full or nearly so, which does not show that the dose was tolerated: the source hardly ever lists a survival T/C far under the control, and the zero likely stands for such cases as well. Where survival is the endpoint, this PubChem deposit counts one and a half times the control or more as active, and values a quarter to a half above the control carry no call in these data; other NCI protocols may use other cut-offs. Some T/C values are followed by the survivors on the day toxicity was checked, most often the fifth; where none is given, no animal had died by that day.
# Tested on: CD2F1 mice, L1210 leukemia ip, survival T/C
# Test: NCI In Vivo Anticancer Drug Screen. Data for tumor model L1210 Leukemia (intraperitoneal) in CD2F1 (CDF1) mice
# Conditions: higher T/C = longer survival
# Method in brief: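 Compound-dosed mice with transplantable tumor versus matched vehicle controls; endpoint ratio T/C reported.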
# [1] = T/C endpoint: mean survival time, dose: 600.0 mg/kg/injection, schedule: Q01DX001 (ip), vehicle: saline
# [2] = T/C endpoint: mean survival time, dose: 800.0 mg/kg/injection, schedule: Q01DX001 (ip), vehicle: saline
structure (smiles),measurement,setting,value
O=P1(N(CCCl)CCCl)NCCCO1 (centres undefined),T/C,"T/C endpoint: mean survival time, dose: 250.0 mg/kg/injection, schedule: Q01DX001 (ip), vehicle: water, evaluated on day 35",90 [5 of 6 alive] and 193 % of control
same,T/C,"T/C endpoint: mean survival time, dose: 250.0 mg/kg/injection, schedule: Q01DX001 (ip), vehicle: water, evaluated on day 40",405 and 426 % of control
same,T/C,"T/C endpoint: mean survival time, dose: 250.0 mg/kg/injection, schedule: Q01DX001 (ip), vehicle: water, evaluated on day 45",244 and 344 % of control
same,T/C,"T/C endpoint: mean survival time, dose: 250.0 mg/kg/injection, schedule: Q01DX001 (ip), vehicle: water, evaluated on day 60",195 % of control
same,T/C,"T/C endpoint: mean survival time, dose: 300.0 mg/kg/injection, schedule: Q01DX001 (ip), vehicle: saline, evaluated on day 5",210 and 267 % of control
same,T/C,"T/C endpoint: mean survival time, dose: 300.0 mg/kg/injection, schedule: Q01DX001 (ip), vehicle: saline, evaluated on day 6",219 % of control
same,T/C,"T/C endpoint: mean survival time, dose: 300.0 mg/kg/injection, schedule: Q01DX001 (ip), vehicle: saline, evaluated on day 30","118, 126, 184, 244, 245, 256, 301 % of control"
same,T/C,"T/C endpoint: mean survival time, dose: 300.0 mg/kg/injection, schedule: Q01DX001 (ip), vehicle: saline, evaluated on day 45",529 % of control
same,T/C,"T/C endpoint: mean survival time, dose: 300.0 mg/kg/injection, schedule: Q01DX001 (ip), vehicle: saline, evaluated on day 90","100, 176, 204, 237, 320, 687, 757 % of control"
same,survivor count,"T/C endpoint: mean survival time, dose: 400.0 mg/kg/injection, schedule: Q01DX001 (ip), vehicle: Klucel (hydroxypropylcellulose) (HPC)",2 of 6
same,T/C,"T/C endpoint: mean survival time, dose: 400.0 mg/kg/injection, schedule: Q01DX001 (ip), vehicle: saline, evaluated on day 5","251, 270, 283, 348, 359, 363, 468, 474, 487 % of control"
same,T/C,"T/C endpoint: mean survival time, dose: 400.0 mg/kg/injection, schedule: Q01DX001 (ip), vehicle: saline, evaluated on day 6",221 % of control
same,T/C,"T/C endpoint: mean survival time, dose: 400.0 mg/kg/injection, schedule: Q01DX001 (ip), vehicle: saline, evaluated on day 30","90 [4 of 6 alive], 185 [5 of 6 alive], 203 [4 of 6 alive], 260, 271 [5 of 6 alive], 278 % of control"
same,T/C,"T/C endpoint: mean survival time, dose: 400.0 mg/kg/injection, schedule: Q01DX001 (ip), vehicle: saline, evaluated on day 32",221 % of control
same,T/C,"T/C endpoint: mean survival time, dose: 400.0 mg/kg/injection, schedule: Q01DX001 (ip), vehicle: saline, evaluated on day 35",251 and 297 % of control
same,T/C,"T/C endpoint: mean survival time, dose: 400.0 mg/kg/injection, schedule: Q01DX001 (ip), vehicle: saline, evaluated on day 40",392 % of control
same,T/C,"T/C endpoint: mean survival time, dose: 400.0 mg/kg/injection, schedule: Q01DX001 (ip), vehicle: saline, evaluated on day 60","270 [9 of 10 alive], 309 [9 of 10 alive], 360 [8 of 10 alive], 468, 522, 536 % of control"
same,T/C,"T/C endpoint: mean survival time, dose: 400.0 mg/kg/injection, schedule: Q01DX001 (ip), vehicle: water, evaluated on day 7",203 % of control
same,T/C,"T/C endpoint: mean survival time, dose: 400.0 mg/kg/injection, schedule: Q01DX001 (ip), vehicle: water, evaluated on day 30","144 [5 of 6 alive], 154 [4 of 6 alive], 163, 168 [4 of 6 alive], 205, 208 [5 of 6 alive], 211 [5 of 6 alive], 231 [5 of 6 alive], 290, 300 % of control [4 of 6 alive]"
same,T/C,"T/C endpoint: mean survival time, dose: 400.0 mg/kg/injection, schedule: Q01DX001 (ip), vehicle: water, evaluated on day 35",308 % of control
same,T/C,"T/C endpoint: mean survival time, dose: 400.0 mg/kg/injection, schedule: Q01DX001 (ip), vehicle: water, evaluated on day 60",203 % of control
same,survivor count,"T/C endpoint: mean survival time, dose: 400.0 mg/kg/injection, schedule: Q01DX001 (ip), vehicle: water",3 of 6
same,T/C,"T/C endpoint: mean survival time, dose: 500.0 mg/kg/injection, schedule: Q01DX001 (ip), vehicle: DMSO, evaluated on day 20",168 % of control
same,T/C,"T/C endpoint: mean survival time, dose: 500.0 mg/kg/injection, schedule: Q01DX001 (ip), vehicle: DMSO, evaluated on day 25",175 [4 of 6 alive] and 200 % of control [5 of 6 alive]
same,T/C,"T/C endpoint: mean survival time, dose: 500.0 mg/kg/injection, schedule: Q01DX001 (ip), vehicle: DMSO, evaluated on day 60",116 % of control [5 of 6 alive]
same,survivor count,"T/C endpoint: mean survival time, dose: 500.0 mg/kg/injection, schedule: Q01DX001 (ip), vehicle: DMSO",3 of 6
same,survivor count,"T/C endpoint: mean survival time, dose: 500.0 mg/kg/injection, schedule: Q01DX001 (ip), vehicle: Klucel (hydroxypropylcellulose) (HPC)",2 of 6
same,survivor count,"T/C endpoint: mean survival time, dose: 500.0 mg/kg/injection, schedule: Q01DX001 (ip), vehicle: saline with Tween-80",3 of 6
same,T/C,"T/C endpoint: mean survival time, dose: 500.0 mg/kg/injection, schedule: Q01DX001 (ip), vehicle: saline, evaluated on day 5",171 % of control
same,T/C,"T/C endpoint: mean survival time, dose: 500.0 mg/kg/injection, schedule: Q01DX001 (ip), vehicle: saline, evaluated on day 30","102 [4 of 6 alive], 155 [5 of 6 alive], 240 % of control"
same,T/C,"T/C endpoint: mean survival time, dose: 500.0 mg/kg/injection, schedule: Q01DX001 (ip), vehicle: saline, evaluated on day 35",201 and 211 % of control [5 of 6 alive]
same,T/C,"T/C endpoint: mean survival time, dose: 500.0 mg/kg/injection, schedule: Q01DX001 (ip), vehicle: saline, evaluated on day 40",223 % of control
same,T/C,"T/C endpoint: mean survival time, dose: 500.0 mg/kg/injection, schedule: Q01DX001 (ip), vehicle: saline, evaluated on day 45",94 [5 of 6 alive] and 474 % of control
same,T/C,"T/C endpoint: mean survival time, dose: 500.0 mg/kg/injection, schedule: Q01DX001 (ip), vehicle: saline, evaluated on day 60",227 % of control [5 of 6 alive]
same,survivor count,"T/C endpoint: mean survival time, dose: 500.0 mg/kg/injection, schedule: Q01DX001 (ip), vehicle: saline","1 of 6, 2 of 6 (2×), 3 of 6 (4×)"
same,T/C,"T/C endpoint: mean survival time, dose: 500.0 mg/kg/injection, schedule: Q01DX001 (ip), vehicle: water, evaluated on day 30","94 [4 of 6 alive], 99, 100 [4 of 6 alive], 104 [4 of 6 alive], 105 [4 of 6 alive], 112 [4 of 6 alive], 116, 127, 138, 149 [5 of 6 alive], 155, 159, 168, 168 [4 of 6 alive], 170 [4 of 6 alive], 179 [5 of 6 alive], 195 [4 of 6 alive], 205 [4 of 6 alive], 218 [5 of 6 alive], 219, 221 [5 of 6 alive], 238, 250, 291, 327 % of control"
same,T/C,"T/C endpoint: mean survival time, dose: 500.0 mg/kg/injection, schedule: Q01DX001 (ip), vehicle: water, evaluated on day 35",91 [5 of 6 alive] and 321 % of control [5 of 6 alive]
same,T/C,"T/C endpoint: mean survival time, dose: 500.0 mg/kg/injection, schedule: Q01DX001 (ip), vehicle: water, evaluated on day 40",406 % of control [4 of 6 alive]
same,T/C,"T/C endpoint: mean survival time, dose: 500.0 mg/kg/injection, schedule: Q01DX001 (ip), vehicle: water, evaluated on day 45",148 % of control [4 of 6 alive]
same,T/C,"T/C endpoint: mean survival time, dose: 500.0 mg/kg/injection, schedule: Q01DX001 (ip), vehicle: water, evaluated on day 60",426 % of control [4 of 6 alive]
same,survivor count,"T/C endpoint: mean survival time, dose: 500.0 mg/kg/injection, schedule: Q01DX001 (ip), vehicle: water","0 of 6, 1 of 6, 1 of 3, 2 of 6 (2×), 3 of 6 (2×), 5 of 6 (4×)"
same,T/C,[1],164 and 180 % of control
same,survivor count,[1],1 of 6 and 5 of 10
same,T/C,[2],84 % of control
same,survivor count,[2],0 of 10 and 10 of 10 (2×)
same,survivor count,"T/C endpoint: mean survival time, dose: 1000.0 mg/kg/injection, schedule: Q01DX001 (ip), vehicle: saline",0 of 6
same,T/C,"T/C endpoint: median survival time, dose: 25.0 mg/kg/injection, schedule: Q01DX005 (ip), vehicle: saline",130 % of control
same,T/C,"T/C endpoint: median survival time, dose: 25.0 mg/kg/injection, schedule: Q01DX009 (ip), vehicle: saline",139 and 141 % of control
same,T/C,"T/C endpoint: median survival time, dose: 40.0 mg/kg/injection, schedule: Q01DX005 (ip), vehicle: saline, evaluated on day 30","127, 133, 134, 136, 138, 139 (2×), 140, 141 (3×), 144 (4×), 148 (4×), 150, 151, 156, 158, 159, 161 (2×), 166 % of control"
same,T/C,"T/C endpoint: median survival time, dose: 40.0 mg/kg/injection, schedule: Q01DX005 (ip), vehicle: saline, evaluated on day 35",144 % of control
same,T/C,"T/C endpoint: median survival time, dose: 40.0 mg/kg/injection, schedule: Q01DX005 (ip), vehicle: saline, evaluated on day 60",148 and 182 % of control
same,T/C,"T/C endpoint: median survival time, dose: 40.0 mg/kg/injection, schedule: Q01DX009 (ip), vehicle: saline, evaluated on day 30","146, 147, 155 (2×), 156 (2×), 160, 161 (3×), 161 [5 of 6 alive], 162, 163, 165, 167, 171, 172 (2×), 175 (2×), 176 (4×), 185, 190, 205 % of control"
same,T/C,"T/C endpoint: median survival time, dose: 40.0 mg/kg/injection, schedule: Q01DX009 (ip), vehicle: saline, evaluated on day 35",160 % of control
same,T/C,"T/C endpoint: median survival time, dose: 40.0 mg/kg/injection, schedule: Q01DX009 (ip), vehicle: saline, evaluated on day 60",162 and 166 % of control
same,T/C,"T/C endpoint: median survival time, dose: 45.0 mg/kg/injection, schedule: Q10HX004 (ip), vehicle: saline",136 % of control
same,T/C,"T/C endpoint: median survival time, dose: 50.0 mg/kg/injection, schedule: Q01DX001 (ip), vehicle: saline, evaluated on day 6",126 and 131 % of control
same,T/C,"T/C endpoint: median survival time, dose: 50.0 mg/kg/injection, schedule: Q01DX001 (ip), vehicle: saline, evaluated on day 11",126 and 131 % of control
same,T/C,"T/C endpoint: median survival time, dose: 50.0 mg/kg/injection, schedule: Q01DX001 (ip), vehicle: saline, evaluated on day 20",122 % of control
same,T/C,"T/C endpoint: median survival time, dose: 50.0 mg/kg/injection, schedule: Q01DX001 (ip), vehicle: saline, evaluated on day 30",129 and 133 % of control
